# From the supplement of paper PMC6411743
# Chains of the proteins cited; added tags and fusions are not shown. Lines headed by an entry give the natural chain unless they say otherwise; changes in a name come on top.
# UniProt Q96QG7: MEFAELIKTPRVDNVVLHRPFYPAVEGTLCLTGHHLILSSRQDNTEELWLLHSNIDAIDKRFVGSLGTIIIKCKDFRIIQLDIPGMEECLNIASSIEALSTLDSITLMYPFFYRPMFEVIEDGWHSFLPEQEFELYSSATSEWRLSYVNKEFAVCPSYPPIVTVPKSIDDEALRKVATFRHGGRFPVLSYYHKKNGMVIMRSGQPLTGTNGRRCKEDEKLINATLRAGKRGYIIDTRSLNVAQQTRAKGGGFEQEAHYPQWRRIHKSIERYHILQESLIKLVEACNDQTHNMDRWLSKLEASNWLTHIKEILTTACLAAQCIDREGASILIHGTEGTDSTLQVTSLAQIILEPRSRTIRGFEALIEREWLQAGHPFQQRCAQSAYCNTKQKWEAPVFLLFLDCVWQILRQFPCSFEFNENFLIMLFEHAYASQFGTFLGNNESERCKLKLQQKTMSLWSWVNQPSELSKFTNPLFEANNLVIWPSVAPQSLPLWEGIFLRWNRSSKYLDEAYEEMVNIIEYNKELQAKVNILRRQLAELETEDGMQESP
# UniProt Q96ER9: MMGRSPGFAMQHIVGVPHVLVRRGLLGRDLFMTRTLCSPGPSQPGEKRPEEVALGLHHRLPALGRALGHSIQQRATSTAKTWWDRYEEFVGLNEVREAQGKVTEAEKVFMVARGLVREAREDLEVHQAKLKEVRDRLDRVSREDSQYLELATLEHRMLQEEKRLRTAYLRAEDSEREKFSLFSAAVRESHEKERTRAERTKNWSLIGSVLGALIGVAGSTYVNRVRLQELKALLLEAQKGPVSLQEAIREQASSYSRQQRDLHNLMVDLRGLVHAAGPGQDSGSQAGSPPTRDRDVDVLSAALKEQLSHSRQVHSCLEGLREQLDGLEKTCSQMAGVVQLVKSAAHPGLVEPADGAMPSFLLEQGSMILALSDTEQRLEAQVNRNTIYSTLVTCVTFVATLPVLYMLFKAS
# UniProt Q96BN2: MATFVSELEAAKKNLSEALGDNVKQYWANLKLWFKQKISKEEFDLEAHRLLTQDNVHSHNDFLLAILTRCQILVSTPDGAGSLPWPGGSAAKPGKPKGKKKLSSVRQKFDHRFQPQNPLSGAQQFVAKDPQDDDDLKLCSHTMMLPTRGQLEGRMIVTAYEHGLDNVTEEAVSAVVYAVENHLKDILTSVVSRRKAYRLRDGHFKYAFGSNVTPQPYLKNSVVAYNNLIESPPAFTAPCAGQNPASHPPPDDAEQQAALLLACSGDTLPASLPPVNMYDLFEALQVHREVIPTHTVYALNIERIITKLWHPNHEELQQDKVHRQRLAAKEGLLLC
# UniProt Q96QT6: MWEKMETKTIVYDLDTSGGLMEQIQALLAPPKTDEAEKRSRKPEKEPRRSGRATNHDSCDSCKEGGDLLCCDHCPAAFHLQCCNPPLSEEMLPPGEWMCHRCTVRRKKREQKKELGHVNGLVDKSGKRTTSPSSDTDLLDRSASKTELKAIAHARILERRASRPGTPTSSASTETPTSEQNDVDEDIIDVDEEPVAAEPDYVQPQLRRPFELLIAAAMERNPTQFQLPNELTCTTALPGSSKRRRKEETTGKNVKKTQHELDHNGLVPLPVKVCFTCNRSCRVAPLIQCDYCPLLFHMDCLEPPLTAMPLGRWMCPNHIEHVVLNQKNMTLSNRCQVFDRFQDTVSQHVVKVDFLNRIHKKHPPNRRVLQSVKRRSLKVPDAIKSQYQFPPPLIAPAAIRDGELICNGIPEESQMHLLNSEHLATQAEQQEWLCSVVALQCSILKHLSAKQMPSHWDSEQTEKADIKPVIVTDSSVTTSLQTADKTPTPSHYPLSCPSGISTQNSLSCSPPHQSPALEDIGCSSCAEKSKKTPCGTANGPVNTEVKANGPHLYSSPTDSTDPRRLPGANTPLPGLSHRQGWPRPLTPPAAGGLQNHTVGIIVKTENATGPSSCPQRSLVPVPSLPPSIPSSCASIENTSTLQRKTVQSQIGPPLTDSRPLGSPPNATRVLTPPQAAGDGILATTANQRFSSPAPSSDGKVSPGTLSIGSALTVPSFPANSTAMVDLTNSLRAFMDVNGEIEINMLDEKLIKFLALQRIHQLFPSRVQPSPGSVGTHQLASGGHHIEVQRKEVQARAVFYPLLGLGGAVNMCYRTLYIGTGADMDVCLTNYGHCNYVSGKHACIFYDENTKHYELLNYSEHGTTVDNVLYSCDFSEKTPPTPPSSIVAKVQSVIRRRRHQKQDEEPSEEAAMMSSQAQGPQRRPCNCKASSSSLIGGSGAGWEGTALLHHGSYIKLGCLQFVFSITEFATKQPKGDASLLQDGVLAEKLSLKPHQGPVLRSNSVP
# UniProt Q96K58: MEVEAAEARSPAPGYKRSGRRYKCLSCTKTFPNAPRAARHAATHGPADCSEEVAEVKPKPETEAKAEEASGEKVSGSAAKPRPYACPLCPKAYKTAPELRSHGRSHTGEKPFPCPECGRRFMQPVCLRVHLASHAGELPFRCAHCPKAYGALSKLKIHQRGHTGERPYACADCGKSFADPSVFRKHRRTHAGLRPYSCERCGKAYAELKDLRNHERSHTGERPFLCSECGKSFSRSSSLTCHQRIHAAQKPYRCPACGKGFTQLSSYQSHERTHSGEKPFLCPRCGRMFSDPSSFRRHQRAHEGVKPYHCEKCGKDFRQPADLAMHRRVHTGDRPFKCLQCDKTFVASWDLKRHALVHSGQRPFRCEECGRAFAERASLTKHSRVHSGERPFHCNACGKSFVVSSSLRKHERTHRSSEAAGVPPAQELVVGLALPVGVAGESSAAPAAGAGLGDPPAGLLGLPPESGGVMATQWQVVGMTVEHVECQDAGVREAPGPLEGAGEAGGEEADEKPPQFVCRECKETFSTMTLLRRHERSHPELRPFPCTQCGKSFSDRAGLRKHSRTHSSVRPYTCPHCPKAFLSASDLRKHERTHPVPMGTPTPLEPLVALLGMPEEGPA
# UniProt Q96SD1, whole entry: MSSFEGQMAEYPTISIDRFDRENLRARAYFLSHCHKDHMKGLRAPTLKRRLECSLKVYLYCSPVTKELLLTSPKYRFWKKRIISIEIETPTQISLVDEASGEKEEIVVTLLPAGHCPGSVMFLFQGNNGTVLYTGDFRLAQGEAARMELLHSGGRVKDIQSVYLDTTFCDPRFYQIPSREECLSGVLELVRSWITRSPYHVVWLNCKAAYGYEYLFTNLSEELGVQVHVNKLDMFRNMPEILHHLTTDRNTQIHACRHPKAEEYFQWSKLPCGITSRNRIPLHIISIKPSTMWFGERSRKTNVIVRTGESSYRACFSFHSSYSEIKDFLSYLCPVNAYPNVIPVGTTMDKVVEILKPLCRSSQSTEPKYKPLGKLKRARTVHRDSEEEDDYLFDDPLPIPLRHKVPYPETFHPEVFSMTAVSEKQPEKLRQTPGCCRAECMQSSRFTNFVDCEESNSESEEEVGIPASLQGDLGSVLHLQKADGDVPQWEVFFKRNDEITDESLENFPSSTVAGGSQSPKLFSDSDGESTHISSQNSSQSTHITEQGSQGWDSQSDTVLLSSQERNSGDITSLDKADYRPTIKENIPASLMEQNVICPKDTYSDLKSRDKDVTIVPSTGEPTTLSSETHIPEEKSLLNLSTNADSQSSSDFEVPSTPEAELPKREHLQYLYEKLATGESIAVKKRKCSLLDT
# UniProt Q96MW1: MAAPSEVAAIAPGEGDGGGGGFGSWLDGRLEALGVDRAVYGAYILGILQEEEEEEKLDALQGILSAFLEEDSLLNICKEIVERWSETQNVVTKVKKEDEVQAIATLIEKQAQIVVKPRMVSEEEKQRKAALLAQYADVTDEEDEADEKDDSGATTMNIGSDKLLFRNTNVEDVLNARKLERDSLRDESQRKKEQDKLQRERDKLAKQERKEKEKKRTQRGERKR
# UniProt Q96FJ2, whole entry: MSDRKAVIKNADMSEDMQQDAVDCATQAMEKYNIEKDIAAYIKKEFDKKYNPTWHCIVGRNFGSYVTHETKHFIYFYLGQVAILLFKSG
# UniProt Q96KP1: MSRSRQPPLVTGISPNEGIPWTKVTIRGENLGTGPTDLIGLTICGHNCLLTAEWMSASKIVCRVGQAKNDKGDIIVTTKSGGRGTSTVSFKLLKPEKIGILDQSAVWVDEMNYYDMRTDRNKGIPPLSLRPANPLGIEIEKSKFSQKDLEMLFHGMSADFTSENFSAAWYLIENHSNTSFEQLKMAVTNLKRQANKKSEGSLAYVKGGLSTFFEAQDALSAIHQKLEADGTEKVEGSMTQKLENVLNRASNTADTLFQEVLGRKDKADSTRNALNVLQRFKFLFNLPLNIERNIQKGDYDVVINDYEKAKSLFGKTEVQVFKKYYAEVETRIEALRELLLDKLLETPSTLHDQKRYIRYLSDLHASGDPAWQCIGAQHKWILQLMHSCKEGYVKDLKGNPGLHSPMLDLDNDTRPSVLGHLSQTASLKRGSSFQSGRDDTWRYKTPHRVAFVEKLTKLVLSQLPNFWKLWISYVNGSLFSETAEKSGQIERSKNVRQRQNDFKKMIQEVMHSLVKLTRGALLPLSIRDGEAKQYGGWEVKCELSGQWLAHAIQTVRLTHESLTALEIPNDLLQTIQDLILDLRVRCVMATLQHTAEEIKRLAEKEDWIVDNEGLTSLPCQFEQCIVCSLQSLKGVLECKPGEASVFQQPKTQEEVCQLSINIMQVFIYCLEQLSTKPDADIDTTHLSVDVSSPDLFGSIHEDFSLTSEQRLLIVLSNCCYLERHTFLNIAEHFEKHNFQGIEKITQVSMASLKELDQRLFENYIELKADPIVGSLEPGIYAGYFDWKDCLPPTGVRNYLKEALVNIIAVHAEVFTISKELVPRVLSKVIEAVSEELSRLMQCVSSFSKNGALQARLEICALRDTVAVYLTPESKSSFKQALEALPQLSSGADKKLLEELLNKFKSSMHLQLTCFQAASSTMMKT
# UniProt Q96DF8: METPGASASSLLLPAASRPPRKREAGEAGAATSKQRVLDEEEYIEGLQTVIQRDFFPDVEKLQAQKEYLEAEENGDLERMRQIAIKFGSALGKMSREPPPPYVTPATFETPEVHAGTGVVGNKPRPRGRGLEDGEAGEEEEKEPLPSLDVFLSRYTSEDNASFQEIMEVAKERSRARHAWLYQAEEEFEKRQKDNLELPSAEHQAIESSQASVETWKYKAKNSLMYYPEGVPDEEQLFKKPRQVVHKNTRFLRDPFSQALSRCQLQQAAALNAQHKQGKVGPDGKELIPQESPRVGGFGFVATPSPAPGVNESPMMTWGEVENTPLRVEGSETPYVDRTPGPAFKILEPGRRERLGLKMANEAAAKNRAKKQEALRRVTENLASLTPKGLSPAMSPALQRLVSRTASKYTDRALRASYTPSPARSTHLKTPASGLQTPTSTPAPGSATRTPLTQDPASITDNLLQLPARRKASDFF
# UniProt Q96KF7: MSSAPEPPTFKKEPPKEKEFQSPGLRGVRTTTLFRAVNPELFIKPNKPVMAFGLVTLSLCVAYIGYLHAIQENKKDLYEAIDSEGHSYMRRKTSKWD
# UniProt Q96IZ6: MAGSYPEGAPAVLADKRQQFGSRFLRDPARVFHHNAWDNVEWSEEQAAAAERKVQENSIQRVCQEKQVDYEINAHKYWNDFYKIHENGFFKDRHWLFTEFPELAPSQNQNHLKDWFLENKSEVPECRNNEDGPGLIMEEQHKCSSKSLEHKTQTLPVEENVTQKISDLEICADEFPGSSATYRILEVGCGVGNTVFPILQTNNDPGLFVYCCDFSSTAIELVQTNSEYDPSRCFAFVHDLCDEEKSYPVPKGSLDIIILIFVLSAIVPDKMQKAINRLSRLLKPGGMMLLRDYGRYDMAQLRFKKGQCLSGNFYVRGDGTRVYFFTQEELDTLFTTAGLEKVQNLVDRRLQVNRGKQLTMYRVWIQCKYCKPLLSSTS
# UniProt Q96SU4: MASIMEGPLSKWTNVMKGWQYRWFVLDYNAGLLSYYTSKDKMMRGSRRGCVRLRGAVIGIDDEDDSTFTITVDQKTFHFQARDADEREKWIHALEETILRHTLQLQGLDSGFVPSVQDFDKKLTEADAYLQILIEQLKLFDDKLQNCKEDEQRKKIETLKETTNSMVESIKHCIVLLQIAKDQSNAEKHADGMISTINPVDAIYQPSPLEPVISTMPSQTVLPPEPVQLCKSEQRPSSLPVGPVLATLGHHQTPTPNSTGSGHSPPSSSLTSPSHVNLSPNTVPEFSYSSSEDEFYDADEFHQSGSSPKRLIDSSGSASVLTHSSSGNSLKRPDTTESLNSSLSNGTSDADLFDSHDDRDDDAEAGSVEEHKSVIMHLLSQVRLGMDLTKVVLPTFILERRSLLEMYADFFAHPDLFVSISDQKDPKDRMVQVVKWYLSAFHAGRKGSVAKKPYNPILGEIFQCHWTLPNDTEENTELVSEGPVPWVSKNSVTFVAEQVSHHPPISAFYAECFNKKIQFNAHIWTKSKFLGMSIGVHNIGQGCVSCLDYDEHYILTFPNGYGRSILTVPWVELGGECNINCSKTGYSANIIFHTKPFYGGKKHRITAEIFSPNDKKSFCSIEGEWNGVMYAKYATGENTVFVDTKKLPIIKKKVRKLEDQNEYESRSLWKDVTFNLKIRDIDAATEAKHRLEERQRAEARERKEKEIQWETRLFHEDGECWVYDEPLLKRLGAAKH
# ± gives the standard deviation of the averaged measurements. This is a selection; strong and weak results do not stand in their true shares. Most entries show no effect beyond the scatter of the controls.
# Compound: Nc1ncnc2c1ncn2[C@@H]1O[C@H](COP(=O)(O)OP(=O)(O)OP(=O)(O)O)[C@@H](O)[C@H]1O [adenosine triphosphate]
# Experiment: NP40-soluble protein abundance relative to vehicle (solubility fold change) (ratio); higher = more soluble protein in presence of ATP
# Method in brief: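 Jurkat crude lysate prepared with a Dounce homogeniser was treated at eight concentrations spanning 0.1 to 10 mM, 10 min at room temperature then 3 min at 37 °C. Solubilisation with 0.8% NP40 and benzonase and ultracentrifugation preceded TMT labelling of the supernatant for LC-MS/MS. Fold change against the detergent-processed vehicle was determined per replicate from vsn-normalised intensities, across three independent experiments.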
target,measurement,setting,value
UniProt Q96QG7 and related entries,NP40-soluble protein abundance,concentration: 0.1mM,1.09 ± 0.12
same,NP40-soluble protein abundance,concentration: 0.5mM,1.1 ± 0.072
CCDC51 (UniProt Q96ER9),NP40-soluble protein abundance,concentration: 0.1mM,1.01 ± 0.017
same,NP40-soluble protein abundance,concentration: 0.5mM,0.991 ± 0.021
UniProt Q96JY6 and related entries,NP40-soluble protein abundance,concentration: 0.1mM,0.996 ± 0.071
same,NP40-soluble protein abundance,concentration: 0.5mM,0.921 ± 0.023
LTV1 (UniProt Q96GA3),NP40-soluble protein abundance,concentration: 0.1mM,0.984 ± 0.094
same,NP40-soluble protein abundance,concentration: 0.5mM,1.01 ± 0.063
STRBP (UniProt Q96SI9),NP40-soluble protein abundance,concentration: 0.1mM,0.974 ± 0.034
same,NP40-soluble protein abundance,concentration: 0.5mM,0.985 ± 0.053
FAM111A (UniProt Q96PZ2),NP40-soluble protein abundance,concentration: 0.1mM,1.2 ± 0.21
same,NP40-soluble protein abundance,concentration: 0.5mM,1.23 ± 0.17
UniProt Q96SN8 and related entries,NP40-soluble protein abundance,concentration: 0.1mM,1.01 ± 0.06
same,NP40-soluble protein abundance,concentration: 0.5mM,1.01 ± 0.096
UniProt Q96BN2,NP40-soluble protein abundance,concentration: 0.1mM,0.969 ± 0.066
same,NP40-soluble protein abundance,concentration: 0.5mM,0.9 ± 0.12
UniProt Q96MH6 and related entries,NP40-soluble protein abundance,concentration: 0.1mM,1.12 ± 0.044
same,NP40-soluble protein abundance,concentration: 0.5mM,1.1 ± 0.077
NSUN4 (UniProt Q96CB9),NP40-soluble protein abundance,concentration: 0.1mM,0.983 ± 0.042
same,NP40-soluble protein abundance,concentration: 0.5mM,0.99 ± 0.016
PHF12 (UniProt Q96QT6),NP40-soluble protein abundance,concentration: 0.1mM,1.04 ± 0.018
same,NP40-soluble protein abundance,concentration: 0.5mM,1.03 ± 0.016
ARL8A (UniProt Q96BM9),NP40-soluble protein abundance,concentration: 0.1mM,1.06 ± 0.11
same,NP40-soluble protein abundance,concentration: 0.5mM,1.01 ± 0.028
UniProt Q96K58 and related entries,NP40-soluble protein abundance,concentration: 0.1mM,1.03 ± 0.032
same,NP40-soluble protein abundance,concentration: 0.5mM,0.965 ± 0.04
UniProt Q96SD1 and related entries,NP40-soluble protein abundance,concentration: 0.1mM,0.971 ± 0.038
same,NP40-soluble protein abundance,concentration: 0.5mM,0.978 ± 0.046
CCDC43 (UniProt Q96MW1),NP40-soluble protein abundance,concentration: 0.1mM,0.97 ± 0.037
same,NP40-soluble protein abundance,concentration: 0.5mM,0.927 ± 0.058
VCPIP1 (UniProt Q96JH7),NP40-soluble protein abundance,concentration: 0.1mM,1.03 ± 0.02
same,NP40-soluble protein abundance,concentration: 0.5mM,1.03 ± 0.039
PURB (UniProt Q96QR8),NP40-soluble protein abundance,concentration: 0.1mM,0.998 ± 0.029
same,NP40-soluble protein abundance,concentration: 0.5mM,1.02 ± 0.027
UniProt Q96FJ2,NP40-soluble protein abundance,concentration: 0.1mM,0.889 ± 0.12
same,NP40-soluble protein abundance,concentration: 0.5mM,0.896 ± 0.14
EXOC2 (UniProt Q96KP1),NP40-soluble protein abundance,concentration: 0.1mM,1.05 ± 0.1
same,NP40-soluble protein abundance,concentration: 0.5mM,1.02 ± 0.052
UniProt Q96RU2-2,NP40-soluble protein abundance,concentration: 0.1mM,1 ± 0.11
same,NP40-soluble protein abundance,concentration: 0.5mM,1.01 ± 0.099
C8orf37 (UniProt Q96NL8),NP40-soluble protein abundance,concentration: 0.1mM,0.909 ± 0.073
same,NP40-soluble protein abundance,concentration: 0.5mM,0.88 ± 0.079
RBM17 (UniProt Q96I25),NP40-soluble protein abundance,concentration: 0.1mM,1.04 ± 0.033
same,NP40-soluble protein abundance,concentration: 0.5mM,1.12 ± 0.061
UniProt Q96L73 and related entries,NP40-soluble protein abundance,concentration: 0.1mM,0.892 ± 0.1
same,NP40-soluble protein abundance,concentration: 0.5mM,1.06 ± 0.14
UniProt Q96DF8,NP40-soluble protein abundance,concentration: 0.1mM,0.95 ± 0.065
same,NP40-soluble protein abundance,concentration: 0.5mM,0.93 ± 0.053
UniProt Q96KF7,NP40-soluble protein abundance,concentration: 0.1mM,1.06 ± 0.071
same,NP40-soluble protein abundance,concentration: 0.5mM,0.994 ± 0.071
UniProt Q96K76-4,NP40-soluble protein abundance,concentration: 0.1mM,1.04 ± 0.075
same,NP40-soluble protein abundance,concentration: 0.5mM,1.04 ± 0.081
UniProt Q96K49 and related entries,NP40-soluble protein abundance,concentration: 0.1mM,1.04 ± 0.047
same,NP40-soluble protein abundance,concentration: 0.5mM,0.969 ± 0.039
METTL2A (UniProt Q96IZ6),NP40-soluble protein abundance,concentration: 0.1mM,0.997 ± 0.082
same,NP40-soluble protein abundance,concentration: 0.5mM,0.944 ± 0.099
UniProt Q96BT7 and related entries,NP40-soluble protein abundance,concentration: 0.1mM,1.11 ± 0.056
same,NP40-soluble protein abundance,concentration: 0.5mM,1.09 ± 0.057
OSBPL9 (UniProt Q96SU4),NP40-soluble protein abundance,concentration: 0.1mM,1.01 ± 0.039
same,NP40-soluble protein abundance,concentration: 0.5mM,1.03 ± 0.025
UniProt Q96G25 and related entries,NP40-soluble protein abundance,concentration: 0.1mM,0.939 ± 0.13
same,NP40-soluble protein abundance,concentration: 0.5mM,0.91 ± 0.095
same,NP40-soluble protein abundance,concentration: 1mM,1 ± 0.11
same,NP40-soluble protein abundance,concentration: 2mM,0.976 ± 0.074
same,NP40-soluble protein abundance,concentration: 4mM,1.06 ± 0.035
same,NP40-soluble protein abundance,concentration: 6mM,1.07 ± 0.11
same,NP40-soluble protein abundance,concentration: 8mM,0.993 ± 0.039
same,NP40-soluble protein abundance,concentration: 10mM,0.965 ± 0.1
PINX1 (UniProt Q96BK5),NP40-soluble protein abundance,concentration: 0.1mM,1.16 ± 0.087
same,NP40-soluble protein abundance,concentration: 0.5mM,1.413 ± 0.0073
same,NP40-soluble protein abundance,concentration: 1mM,1.52 ± 0.023
same,NP40-soluble protein abundance,concentration: 2mM,1.64 ± 0.086
same,NP40-soluble protein abundance,concentration: 4mM,1.78 ± 0.11
same,NP40-soluble protein abundance,concentration: 6mM,1.95 ± 0.1
same,NP40-soluble protein abundance,concentration: 8mM,1.91 ± 0.13
same,NP40-soluble protein abundance,concentration: 10mM,2.03 ± 0.14
SENP8 (UniProt Q96LD8),NP40-soluble protein abundance,concentration: 0.1mM,1.01 ± 0.072
same,NP40-soluble protein abundance,concentration: 0.5mM,1.04 ± 0.085
same,NP40-soluble protein abundance,concentration: 1mM,0.97 ± 0.057
same,NP40-soluble protein abundance,concentration: 2mM,0.942 ± 0.032
same,NP40-soluble protein abundance,concentration: 4mM,0.943 ± 0.014
same,NP40-soluble protein abundance,concentration: 6mM,0.922 ± 0.035
same,NP40-soluble protein abundance,concentration: 8mM,0.911 ± 0.024
same,NP40-soluble protein abundance,concentration: 10mM,0.932 ± 0.023

# In another format: results already given
target | measurement | setting | value
CCDC43 (UniProt Q96MW1) | NP40-soluble protein abundance | concentration: 0.5mM | 0.927 ± 0.058
VCPIP1 (UniProt Q96JH7) | NP40-soluble protein abundance | concentration: 0.1mM | 1.03 ± 0.02
same | NP40-soluble protein abundance | concentration: 0.5mM | 1.03 ± 0.039
PURB (UniProt Q96QR8) | NP40-soluble protein abundance | concentration: 0.1mM | 0.998 ± 0.029
same | NP40-soluble protein abundance | concentration: 0.5mM | 1.02 ± 0.027
UniProt Q96FJ2 | NP40-soluble protein abundance | concentration: 0.1mM | 0.889 ± 0.12
same | NP40-soluble protein abundance | concentration: 0.5mM | 0.896 ± 0.14
EXOC2 (UniProt Q96KP1) | NP40-soluble protein abundance | concentration: 0.1mM | 1.05 ± 0.1
same | NP40-soluble protein abundance | concentration: 0.5mM | 1.02 ± 0.052
UniProt Q96RU2-2 | NP40-soluble protein abundance | concentration: 0.1mM | 1 ± 0.11
same | NP40-soluble protein abundance | concentration: 0.5mM | 1.01 ± 0.099
C8orf37 (UniProt Q96NL8) | NP40-soluble protein abundance | concentration: 0.1mM | 0.909 ± 0.073
same | NP40-soluble protein abundance | concentration: 0.5mM | 0.88 ± 0.079
RBM17 (UniProt Q96I25) | NP40-soluble protein abundance | concentration: 0.1mM | 1.04 ± 0.033
same | NP40-soluble protein abundance | concentration: 0.5mM | 1.12 ± 0.061
UniProt Q96L73 and related entries | NP40-soluble protein abundance | concentration: 0.1mM | 0.892 ± 0.1
same | NP40-soluble protein abundance | concentration: 0.5mM | 1.06 ± 0.14
